# Experimental data reported in paper PMC5641085.
# Chains of the proteins cited; added tags and fusions are not shown.
# UniProt O95832: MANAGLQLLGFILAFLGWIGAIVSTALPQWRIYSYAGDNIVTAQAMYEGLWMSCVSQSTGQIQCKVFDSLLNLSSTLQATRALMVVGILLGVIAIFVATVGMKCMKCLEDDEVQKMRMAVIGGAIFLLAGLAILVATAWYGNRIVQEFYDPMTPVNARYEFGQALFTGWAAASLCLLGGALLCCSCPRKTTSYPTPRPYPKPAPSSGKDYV
# UniProt P35222: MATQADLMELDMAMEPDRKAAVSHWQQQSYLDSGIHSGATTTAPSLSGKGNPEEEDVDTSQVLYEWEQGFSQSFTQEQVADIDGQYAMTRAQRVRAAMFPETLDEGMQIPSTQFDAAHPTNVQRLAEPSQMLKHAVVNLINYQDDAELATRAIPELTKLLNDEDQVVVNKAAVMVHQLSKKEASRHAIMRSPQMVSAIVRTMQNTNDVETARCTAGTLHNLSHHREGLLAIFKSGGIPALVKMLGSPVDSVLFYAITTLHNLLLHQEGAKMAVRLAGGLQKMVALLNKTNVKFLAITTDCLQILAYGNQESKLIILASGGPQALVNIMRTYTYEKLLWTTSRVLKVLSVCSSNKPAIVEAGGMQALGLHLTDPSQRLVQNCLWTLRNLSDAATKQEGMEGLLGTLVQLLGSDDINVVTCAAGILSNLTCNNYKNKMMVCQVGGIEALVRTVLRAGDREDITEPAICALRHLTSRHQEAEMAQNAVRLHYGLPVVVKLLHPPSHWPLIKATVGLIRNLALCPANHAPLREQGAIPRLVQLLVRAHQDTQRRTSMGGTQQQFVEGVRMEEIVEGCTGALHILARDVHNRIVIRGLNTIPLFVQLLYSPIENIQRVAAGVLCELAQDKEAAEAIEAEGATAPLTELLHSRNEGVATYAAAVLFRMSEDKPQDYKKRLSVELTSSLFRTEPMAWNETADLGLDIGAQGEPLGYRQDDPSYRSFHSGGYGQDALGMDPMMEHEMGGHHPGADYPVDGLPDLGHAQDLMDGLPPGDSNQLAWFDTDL
# UniProt P08670: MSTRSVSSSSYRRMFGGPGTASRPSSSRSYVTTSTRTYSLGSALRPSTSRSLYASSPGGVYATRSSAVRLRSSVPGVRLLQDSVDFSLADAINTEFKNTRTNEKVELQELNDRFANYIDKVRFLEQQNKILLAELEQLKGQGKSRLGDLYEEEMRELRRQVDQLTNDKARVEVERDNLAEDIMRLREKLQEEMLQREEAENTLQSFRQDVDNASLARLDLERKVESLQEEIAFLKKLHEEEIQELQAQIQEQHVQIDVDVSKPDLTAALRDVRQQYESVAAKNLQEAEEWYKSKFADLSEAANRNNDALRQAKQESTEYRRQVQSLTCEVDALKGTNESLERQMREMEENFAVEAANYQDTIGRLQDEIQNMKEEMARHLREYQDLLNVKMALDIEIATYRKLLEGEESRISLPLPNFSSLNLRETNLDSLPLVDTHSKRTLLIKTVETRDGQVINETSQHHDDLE
# UniProt O95863: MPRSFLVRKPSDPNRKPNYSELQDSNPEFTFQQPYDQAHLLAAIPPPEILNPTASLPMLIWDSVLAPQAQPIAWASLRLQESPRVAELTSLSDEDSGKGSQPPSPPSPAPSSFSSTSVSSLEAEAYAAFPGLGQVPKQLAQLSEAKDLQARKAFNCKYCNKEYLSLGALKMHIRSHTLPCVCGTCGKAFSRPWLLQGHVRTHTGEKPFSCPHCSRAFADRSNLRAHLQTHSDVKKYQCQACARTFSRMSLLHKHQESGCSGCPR
# These are yes or no findings as the source states them, for the method shown.
# T1: Ubiquitin-conjugating enzyme E2 J2 (UBE2J2) (human (endogenous in human liver cancer cell lines HCCLM3 or SMMC7721)) (UniProt Q8N2K1)
# T1 sequence: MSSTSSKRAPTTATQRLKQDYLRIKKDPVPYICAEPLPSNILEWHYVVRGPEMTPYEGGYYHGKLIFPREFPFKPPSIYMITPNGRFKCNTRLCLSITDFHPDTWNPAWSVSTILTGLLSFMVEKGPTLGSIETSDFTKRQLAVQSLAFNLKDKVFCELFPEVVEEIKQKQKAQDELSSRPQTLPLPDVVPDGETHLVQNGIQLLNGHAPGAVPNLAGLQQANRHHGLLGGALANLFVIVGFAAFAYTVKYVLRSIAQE
# Molecular target: T1, Ubiquitin-conjugating enzyme E2 J2 (UBE2J2) (human (endogenous in human liver cancer cell lines HCCLM3 or SMMC7721))
# Assay: SPR; Biacore X100; anti-UBE2J2 antibody (and normal IgG) immobilised on a CM5 chip by EDC/NHS, blocked with 3% BSA; concentrated RIPA cell lysate injected, washed with HEPES buffer (50 mM HEPES, pH 7.4, 150 mM NaCl); proteins held with UBE2J2 detected by injecting antibodies against them
row,Molecule,binding
1,CLDN-1 (from UniProt O95832 1-211),no binding
2,β-catenin (from UniProt P35222 1-781),no binding
3,vimentin (from UniProt P08670 1-466),no binding
4,snail (from UniProt O95863 1-264),no binding
5,"slug (protein, UniProt O43623 1-268) MPRSFLVKKHFNASKKPNYSELDTHTVIISPYLYESYSMPVIPQPEILSSGAYSPITVWTTAAPFHAQLPNGLSPLSGYSSSLGRVSPPPPSDTSSKDHSGSESPISDEEERLQSKLSDPHAIEAEKFQCNLCNKTYSTFSGLAKHKQLHCDAQSRKSFSCKYCDKEYVSLGALKMHIRTHTLPCVCKICGKAFSRPWLLQGHIRTHTGEKPFSCPHCNRAFADRSNLRAHLQTHSDVKKYQCKNCSKTFSRMSLLHKHEESGCCVAH",no binding
